{"source": "PubChem BioAssay AID743454 – Peter MacCallum Cancer Centre – 2014", "screen": "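Genes whose loss kills vorinostat-resistant colon cancer cells under vorinostat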 (primary screen)", "cell system": "human HCT116-VR colon cancer cells, selected for vorinostat resistance", "reagent": "siRNA pool against human genes, 40 nM siRNA pool", "time to read-out": "vorinostat for 24 h, read-out about 72 h after transfection", "challenge": "vorinostat at 2.5 µM final", "measured": "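Cell viability by CellTiter-Fluor and caspase 3/7 activity by luminescence, each scaled to mock wells per plate, duplicates averaged, then robust z-scored over all plates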", "scale": "viability robust z-score: higher = more viable cells than screen typical; caspase robust z-score: higher = more caspase 3/7 activity than screen typical", "call rule": "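Hits are knock-downs in viability class RV1/RV2 or caspase class CA1/CA2, excluding ones that killed cells in the no-drug cell-count arm; hits then retested with single siRNAs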", "note": "In all, the deposit lists about 18,000 reagents; below is an unselected part. 450 of them (2.5%) were called active. 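Single biological run; no consistent viability z cut-off exists, so the class columns, not z-scores, define the calls.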"}
{"Gene": "AK8", "viability hit class": "no change", "caspase hit class": "no change", "viability robust z-score": 0.42, "caspase robust z-score": 2.54, "activity call": "inactive"}
{"Gene": "IL6", "viability hit class": "no change", "caspase hit class": "no change", "viability robust z-score": 0.6, "caspase robust z-score": -1, "activity call": "inactive"}
{"Gene": "FAM168A", "viability hit class": "no change", "caspase hit class": "no change", "viability robust z-score": -0.7, "caspase robust z-score": 0.08, "activity call": "inactive"}
{"Gene": "TMEM91", "viability hit class": "no change", "caspase hit class": "no change", "viability robust z-score": 1.12, "caspase robust z-score": 2.09, "activity call": "inactive"}
{"Gene": "ZNF383", "viability hit class": "no change", "caspase hit class": "no change", "viability robust z-score": -0.42, "caspase robust z-score": 0.44, "activity call": "inactive"}
{"Gene": "TBR1", "viability hit class": "no change", "caspase hit class": "no change", "viability robust z-score": 0.6, "caspase robust z-score": 2.88, "activity call": "inactive"}
{"Gene": "UBE2K", "viability hit class": "no change", "caspase hit class": "no change", "viability robust z-score": -1, "caspase robust z-score": 0.47, "activity call": "inactive"}
{"Gene": "ZNG1E", "viability hit class": "no change", "caspase hit class": "no change", "viability robust z-score": 0.91, "caspase robust z-score": -0.25, "activity call": "inactive"}
{"Gene": "RANBP17", "viability hit class": "no change", "caspase hit class": "no change", "viability robust z-score": -0.04, "caspase robust z-score": -0.62, "activity call": "inactive"}
{"Gene": "EN1", "viability hit class": "no change", "caspase hit class": "no change", "viability robust z-score": 0.54, "caspase robust z-score": -0.53, "activity call": "inactive"}
{"Gene": "BCLAF3", "viability hit class": "no change", "caspase hit class": "no change", "viability robust z-score": -0.12, "caspase robust z-score": -0.72, "activity call": "inactive"}
{"Gene": "AFF4", "viability hit class": "no change", "caspase hit class": "no change", "viability robust z-score": -0.22, "caspase robust z-score": 1.46, "activity call": "inactive"}
{"Gene": "PRODH", "viability hit class": "no change", "caspase hit class": "no change", "viability robust z-score": -0.97, "caspase robust z-score": 1.08, "activity call": "inactive"}
{"Gene": "SACS", "viability hit class": "no change", "caspase hit class": "no change", "viability robust z-score": 1.01, "caspase robust z-score": -0.78, "activity call": "inactive"}
{"Gene": "TMEM126B", "viability hit class": "no change", "caspase hit class": "no change", "viability robust z-score": 1.09, "caspase robust z-score": -0.46, "activity call": "inactive"}

In a second layout: entries from further up.
EN1 → viability hit class = no change; caspase hit class = no change; viability robust z-score = 0.54; caspase robust z-score = -0.53; activity call = inactive
BCLAF3 → viability hit class = no change; caspase hit class = no change; viability robust z-score = -0.12; caspase robust z-score = -0.72; activity call = inactive

Continued:
{"Gene": "LIPG", "viability hit class": "no change", "caspase hit class": "no change", "viability robust z-score": 0.68, "caspase robust z-score": -0.08, "activity call": "inactive"}
{"Gene": "PIAS3", "viability hit class": "no change", "caspase hit class": "no change", "viability robust z-score": -0.78, "caspase robust z-score": -0.22, "activity call": "inactive"}
{"Gene": "SLC15A4", "viability hit class": "no change", "caspase hit class": "no change", "viability robust z-score": -0.28, "caspase robust z-score": -0.34, "activity call": "inactive"}
{"Gene": "ARL5B", "viability hit class": "no change", "caspase hit class": "no change", "viability robust z-score": 0.78, "caspase robust z-score": 0.58, "activity call": "inactive"}
{"Gene": "OSBPL2", "viability hit class": "no change", "caspase hit class": "no change", "viability robust z-score": 1.38, "caspase robust z-score": -0.38, "activity call": "inactive"}
{"Gene": "XPNPEP3", "viability hit class": "no change", "caspase hit class": "no change", "viability robust z-score": -0.04, "caspase robust z-score": 0.11, "activity call": "inactive"}
{"Gene": "BCL7B", "viability hit class": "no change", "caspase hit class": "no change", "viability robust z-score": -0.18, "caspase robust z-score": 1.7, "activity call": "inactive"}
{"Gene": "FGD4", "viability hit class": "no change", "caspase hit class": "no change", "viability robust z-score": 0.66, "caspase robust z-score": 4.58, "activity call": "inactive"}
{"Gene": "SMAD6", "viability hit class": "no change", "caspase hit class": "no change", "viability robust z-score": 1.44, "caspase robust z-score": 0.13, "activity call": "inactive"}
{"Gene": "CAMK2G", "viability hit class": "no change", "caspase hit class": "no change", "viability robust z-score": 0.39, "caspase robust z-score": 0.14, "activity call": "inactive"}
{"Gene": "ZNF318", "viability hit class": "no change", "caspase hit class": "no change", "viability robust z-score": 0.84, "caspase robust z-score": 1.06, "activity call": "inactive"}
{"Gene": "THBS3", "viability hit class": "no change", "caspase hit class": "no change", "viability robust z-score": 0.48, "caspase robust z-score": 2.84, "activity call": "inactive"}
